The source of these data is paper PMC5024327.

Amino acid sequences for entries named in this document (tags omitted). A change or cut given only in a name is not applied to a line headed by its entry.
UniProt Q61333: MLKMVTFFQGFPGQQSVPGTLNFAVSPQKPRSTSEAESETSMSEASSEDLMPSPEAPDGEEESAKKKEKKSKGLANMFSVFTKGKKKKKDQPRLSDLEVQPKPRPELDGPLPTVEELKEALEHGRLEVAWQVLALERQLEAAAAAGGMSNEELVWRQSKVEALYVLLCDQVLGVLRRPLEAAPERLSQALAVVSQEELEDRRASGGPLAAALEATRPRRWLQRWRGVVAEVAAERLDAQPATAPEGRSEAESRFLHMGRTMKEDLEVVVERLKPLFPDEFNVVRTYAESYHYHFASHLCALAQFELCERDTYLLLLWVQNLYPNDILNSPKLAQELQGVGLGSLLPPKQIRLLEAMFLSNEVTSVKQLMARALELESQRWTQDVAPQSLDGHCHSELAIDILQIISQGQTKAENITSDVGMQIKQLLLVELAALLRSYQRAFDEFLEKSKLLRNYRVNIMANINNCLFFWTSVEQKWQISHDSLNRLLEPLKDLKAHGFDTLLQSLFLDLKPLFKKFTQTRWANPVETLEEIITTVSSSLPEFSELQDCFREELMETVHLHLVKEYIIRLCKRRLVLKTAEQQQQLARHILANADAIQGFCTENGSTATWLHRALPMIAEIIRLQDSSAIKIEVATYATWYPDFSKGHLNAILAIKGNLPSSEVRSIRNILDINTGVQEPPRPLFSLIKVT

No constants are given. Whether binding was seen depends on the method and setting. Binding seen in cells or lysates may run through a third protein. A result given as binding can be weak or reduced; the word gives no strength. Tags and fused reporters may be left off the sequences shown.

The assay has as its target T1, GST-RalA (UniProt P11233).
T1 sequence: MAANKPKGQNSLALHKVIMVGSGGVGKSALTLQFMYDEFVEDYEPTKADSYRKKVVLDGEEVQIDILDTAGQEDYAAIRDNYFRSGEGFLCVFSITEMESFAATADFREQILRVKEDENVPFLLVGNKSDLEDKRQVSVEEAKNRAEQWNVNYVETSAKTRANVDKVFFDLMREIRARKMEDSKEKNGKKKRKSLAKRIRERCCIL
Nature of the assay: pull-down; 10 μg GST-RalA on GSH beads, loaded with 200 μM GTPγS or 1 mM GDP (or no nucleotide), incubated with HEK293A lysates at 4 °C for 2 hours; Western blot with anti-GFP and anti-Sec8; only the target purified. (In general: A western blot detects proteins with antibodies after separation by electrophoresis.)
Turning to “GFP-M-Sec (wild type, residues 1-650) (from UniProt Q61333)”, the binding entry is “binds”.

Regarding “GFP-M-Sec K470A/K474A (from UniProt Q61333)”, the binding entry is “no binding”.

In the case of “GFP-M-Sec K531A/R532A/R533A/K537A (from UniProt Q61333)”, the binding result is “no binding”.
